Results deposited as PubChem BioAssay AID1671195 (Yale University, 2021).
Screen: 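Regulators of LDL receptor activity judged by labelled LDL uptake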 (primary screen). System: human Huh7 hepatoma cells. Knock-down reagent: siRNA pool against human genes, 18 nM. Duration: about 2 to 2.5 days of knockdown, then 8 h LDL uptake. Conditions: DiI-labelled LDL at 30 µg/ml for 8 h, in lipoprotein-deficient serum medium. Read-out: 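Fluorescent LDL signal imaged in cells, scaled to the plate median, robust z-score for each replicate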. Reading the numbers: robust z-score: higher = more LDL uptake after knockdown. Active means: 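Active when two or more replicates show a robust z-score above 2 or below -2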.
The whole screen tested about 22,000 reagents; below is a random part of them. About 1,510 of all reagents (6.9%) count as active. 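Active includes knockdowns raising or lowering LDL uptake; positive z-scores mean more uptake, negative mean less.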

The first 3 entries, to show the layout:
CACNA1S (calcium voltage-gated channel subunit alpha1 S) — robust z-score, replicate 1 = -1.22; robust z-score, replicate 2 = -0.58; robust z-score, replicate 3 = -1.35; activity call = inactive
NTSR1 (neurotensin receptor 1) — robust z-score, replicate 1 = 0.00517; robust z-score, replicate 2 = 0.397; robust z-score, replicate 3 = 0.316; activity call = inactive
ATXN10 (ataxin 10) — robust z-score, replicate 1 = -0.845; robust z-score, replicate 2 = -1.91; robust z-score, replicate 3 = -0.108; activity call = inactive

The listing, repeating the preview:
CACNA1S (calcium voltage-gated channel subunit alpha1 S) — robust z-score, replicate 1 = -1.22; robust z-score, replicate 2 = -0.58; robust z-score, replicate 3 = -1.35; activity call = inactive
NTSR1 (neurotensin receptor 1) — robust z-score, replicate 1 = 0.00517; robust z-score, replicate 2 = 0.397; robust z-score, replicate 3 = 0.316; activity call = inactive
ATXN10 (ataxin 10) — robust z-score, replicate 1 = -0.845; robust z-score, replicate 2 = -1.91; robust z-score, replicate 3 = -0.108; activity call = inactive
ANLN (anillin, actin binding protein) — robust z-score, replicate 1 = -0.305; robust z-score, replicate 2 = -0.883; robust z-score, replicate 3 = -0.518; activity call = inactive
LOC441833 (retired record) — robust z-score, replicate 1 = -0.649; robust z-score, replicate 2 = -0.675; robust z-score, replicate 3 = -0.793; activity call = inactive
DLX4 (distal-less homeobox 4) — robust z-score, replicate 1 = -0.972; robust z-score, replicate 2 = -0.15; robust z-score, replicate 3 = 0.183; activity call = inactive
PAGE4 (PAGE family member 4) — robust z-score, replicate 1 = 1.35; robust z-score, replicate 2 = -0.461; robust z-score, replicate 3 = 0.116; activity call = inactive
TNRC6C (trinucleotide repeat containing adaptor 6C) — robust z-score, replicate 1 = -0.458; robust z-score, replicate 2 = -0.66; robust z-score, replicate 3 = -0.113; activity call = inactive
GLT8D2 (glycosyltransferase 8 domain containing 2) — robust z-score, replicate 1 = -0.118; robust z-score, replicate 2 = -0.229; robust z-score, replicate 3 = -0.362; activity call = inactive
SRPK1 (SRSF protein kinase 1) — robust z-score, replicate 1 = 0.864; robust z-score, replicate 2 = 0.859; robust z-score, replicate 3 = 0.903; activity call = inactive
FCRL3 (Fc receptor like 3) — robust z-score, replicate 1 = -0.499; robust z-score, replicate 2 = -0.092; robust z-score, replicate 3 = -0.157; activity call = inactive
PARG (poly(ADP-ribose) glycohydrolase) — robust z-score, replicate 1 = -1.3; robust z-score, replicate 2 = -0.696; robust z-score, replicate 3 = -1.12; activity call = inactive
ACTR6 (actin related protein 6) — robust z-score, replicate 1 = 1.05; robust z-score, replicate 2 = 0.754; robust z-score, replicate 3 = 0.715; activity call = inactive
ACOX3 (acyl-CoA oxidase 3, pristanoyl) — robust z-score, replicate 1 = -0.778; robust z-score, replicate 2 = 0.152; robust z-score, replicate 3 = 0.65; activity call = inactive
KRTAP3-1 (keratin associated protein 3-1) — robust z-score, replicate 1 = -0.439; robust z-score, replicate 2 = 0.301; robust z-score, replicate 3 = -0.0237; activity call = inactive
PCBP1 (poly(rC) binding protein 1) — robust z-score, replicate 1 = -1.16; robust z-score, replicate 2 = -0.478; robust z-score, replicate 3 = -0.401; activity call = inactive
FHIP2B (FHF complex subunit HOOK interacting protein 2B) — robust z-score, replicate 1 = -0.264; robust z-score, replicate 2 = -0.534; robust z-score, replicate 3 = -0.536; activity call = inactive
STON1 (stonin 1) — robust z-score, replicate 1 = 0.0316; robust z-score, replicate 2 = -0.812; robust z-score, replicate 3 = 1.12; activity call = inactive
ADAM10 (ADAM metallopeptidase domain 10) — robust z-score, replicate 1 = -0.217; robust z-score, replicate 2 = -2.64; robust z-score, replicate 3 = -0.556; activity call = inactive
RPL13A (ribosomal protein L13a) — robust z-score, replicate 1 = 0.447; robust z-score, replicate 2 = -2.29; robust z-score, replicate 3 = 0.397; activity call = inactive
LOC442281 (retired record) — robust z-score, replicate 1 = 1.25; robust z-score, replicate 2 = 2.19; robust z-score, replicate 3 = 1.68; activity call = inactive
LLGL1 (LLGL scribble cell polarity complex component 1) — robust z-score, replicate 1 = 1.08; robust z-score, replicate 2 = 0.474; robust z-score, replicate 3 = -0.0252; activity call = inactive
SLC29A4 — robust z-score, replicate 1 = -0.306; robust z-score, replicate 2 = -0.513; robust z-score, replicate 3 = 0.176; activity call = inactive
DAOA-AS1 (DAOA antisense RNA 1) — robust z-score, replicate 1 = -0.83; robust z-score, replicate 2 = -0.532; robust z-score, replicate 3 = -0.815; activity call = inactive
